From patent US9161533B2, “Plant pathogen resistance” (priority 2007, dated 2015)

Assay: GC-MS level of azelaic acid in petiole exudates
Set-up: species or system Arabidopsis

Compound: O=C(O)CCCCCCCC(=O)O [azelaic acid]
- azelaic acid level in mock-induced exudates (Col-Mex, 10 mM MgSO4, 72 hrs): 5.1 µM
- higher levels of azelaic acid in active vs inactive exudates (average, p=0.042): 6.2 fold
